Reference: the supplement of paper PMC4749390
Where a name gives a salt, the structure may show the parent alone. The list shows a part of the results. Single values are uncertain here, since repeats match poorly.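 JEG3 cells stably express tetracycline-inducible wild-type human LRH-1, a highly sumoylated nuclear receptor. SUMO-sensitive transcripts APOC3 and MUC1, increased by SUMO-deficient LRH-1 or UBC9 knockdown, were quantified by RT-qPCR relative to TBP and DMSO controls. Primary hits had robust Z-scores above +2 or below -2, before toxicity and TBP filtering.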

These compounds were tested on JEG3 expressing hLRH-1 (assay: APOC3 transcript change (ddCt vs TBP and DMSO), Z-score over library; higher = higher APOC3 expression). Details: 10 µM; time (hr): 24.
For `NS(=O)(=O)c1cc2c(cc1C(F)(F)F)NCNS2(=O)=O` [hydroflumethiazide], the “APOC3 transcript change (Z-score)” value was 0.339.
For `Oc1c(Cl)cc(Cl)cc1Sc1cc(Cl)cc(Cl)c1O` [bithionol], the “APOC3 transcript change (Z-score)” value was -1.45.
For `CC(=O)c1ccc2c(c1)N(CCCN(C)C)c1ccccc1S2` [acepromazine maleate], the “APOC3 transcript change (Z-score)” value was 0.46.
`CN1CCC(OC(c2ccccc2)c2ccccc2)CC1` [diphenylpyraline hydrochloride] was tested, and the “APOC3 transcript change (Z-score)” value was -0.278.
In the case of `Cn1nnc2c(C(N)=O)ncn2c1=O` [temozolamide], the “APOC3 transcript change (Z-score)” value is reported as -0.747.
`OCCc1ccccc1` [phenylethyl alcohol] was tested, and the “APOC3 transcript change (Z-score)” value was -0.43.
`C[C@H]1c2cccc(O)c2C(=O)C2=C(O)[C@]3(O)C(O)=C(C(N)=O)C(=O)[C@@H](N(C)C)[C@@H]3[C@@H](O)[C@@H]21` [doxycycline hydrochloride] was tested, and the “APOC3 transcript change (Z-score)” value was 0.325.
`Nc1ccc(C(=O)O)c(O)c1` [sodium p-aminosalicylate] was tested, and the “APOC3 transcript change (Z-score)” value was 0.115.
With `CN(C)CCCN1c2ccccc2Sc2ccc(Cl)cc21` [Chlorpromazine hydrochloride] the “APOC3 transcript change (Z-score)” value was 0.531.
`CS(=O)(=O)Nc1ccc([N+](=O)[O-])cc1Oc1ccccc1` [nimesulide] was tested, and the “APOC3 transcript change (Z-score)” value was -0.805.
With `O=C(O)c1ccccc1O` [sodium salicylate] the “APOC3 transcript change (Z-score)” value was -0.00182.
With `CCCCOc1cc(C(=O)OCCN(CC)CC)ccc1N` [benoxinate hydrochloride] the “APOC3 transcript change (Z-score)” value was 0.461.
In the case of `CCC(=O)O[C@]1(C(=O)SCF)[C@H](C)C[C@H]2[C@@H]3C[C@H](F)C4=CC(=O)C=C[C@]4(C)[C@@]3(F)[C@@H](O)C[C@@]21C` [fluticasone propionate], the “APOC3 transcript change (Z-score)” value is reported as 0.493.
`CCn1nc(C(=O)O)c(=O)c2cc3c(cc21)OCO3` [cinoxacin] was tested, and the “APOC3 transcript change (Z-score)” value was -0.248.
With `COC(=O)[C@H](c1ccccc1Cl)N1CCc2sccc2C1` [clopidogrel sulfate] the “APOC3 transcript change (Z-score)” value was -0.131.
For `C1CCC(C(CC2CCCCN2)C2CCCCC2)CC1` (centres undefined) [perhexiline maleate], the “APOC3 transcript change (Z-score)” value was 1.47.
With `CN1CCC(=C2c3ccccc3C=Cc3ccccc32)CC1` [Cyproheptadine hydrochloride] the “APOC3 transcript change (Z-score)” value was -0.161.
For `OCc1ccccn1` [piconol], the “APOC3 transcript change (Z-score)” value was -0.0605.
With `COCCc1ccc(OCC(O)CNC(C)C)cc1` (centres undefined) [metoprolol tartrate] the “APOC3 transcript change (Z-score)” value was 1.02.
For `COc1cc(CNC(=O)CCCC/C=C/C(C)C)ccc1O` [e-capsaicin], the “APOC3 transcript change (Z-score)” value was 0.621.
`CC[C@H]1OC(=O)[C@H](C)[C@@H](O[C@H]2C[C@@](C)(OC)[C@@H](O)[C@H](C)O2)[C@H](C)[C@@H](O[C@@H]2O[C@H](C)C[C@H](N(C)C)[C@H]2O)[C@](C)(OC)C[C@@H](C)C(=O)[C@H](C)[C@@H](O)[C@]1(C)O` [clarithromycin] was tested, and the “APOC3 transcript change (Z-score)” value was 0.246.
`C=NC(C(=O)NC1C(=O)N2C1SC(C)(C)C2C(=O)O)c1ccccc1` (centres undefined) [metampicillin sodium] was tested, and the “APOC3 transcript change (Z-score)” value was -0.0793.
`CCOC(=O)OC(C)OC1=C(C(=O)Nc2ccccn2)N(C)S(=O)(=O)c2ccccc21` (centres undefined) [ampiroxicam] was tested, and the “APOC3 transcript change (Z-score)” value was 0.132.
In the case of `COc1ccc(C(=O)c2ccccc2O)c(O)c1` [dioxybenzone], the “APOC3 transcript change (Z-score)” value is reported as -0.284.
With `CC1CCCC(C)N1` (centres undefined) [nanofin] the “APOC3 transcript change (Z-score)” value was -0.147.
In the case of `CC(=O)Nc1cccc(O)c1` [metacetamol], the “APOC3 transcript change (Z-score)” value is reported as -0.0285.
With `CC(=O)OCC(CCn1cnc2cnc(N)nc21)COC(C)=O` [famciclovir] the “APOC3 transcript change (Z-score)” value was -0.584.
In the case of `CC[N+](CC)(CC)CCOc1cccc(OCC[N+](CC)(CC)CC)c1OCC[N+](CC)(CC)CC` [Gallamine triethiodide], the “APOC3 transcript change (Z-score)” value is reported as -0.702.
For `CC(=O)[C@H]1CCC2C3CCC4=CC(=O)CC[C@]4(C)C3CC[C@@]21C` (some centres undefined) [progesterone], the “APOC3 transcript change (Z-score)” value was 0.743.
With `CC(C)(C)NCC(O)c1cc(O)cc(O)c1` (centres undefined) [terbutaline hemisulfate] the “APOC3 transcript change (Z-score)” value was -0.188.
`CCCC(=O)Nc1ccc(OCC(O)CNC(C)C)c(C(C)=O)c1` (centres undefined) [acebutolol hydrochloride] was tested, and the “APOC3 transcript change (Z-score)” value was -0.162.
For `CC(Oc1c(Cl)cccc1Cl)C1=NCCN1` (centres undefined) [lofexidine  hydrochloride], the “APOC3 transcript change (Z-score)” value was -0.89.
For `C#CCN(C)CCCOc1ccc(Cl)cc1Cl` [Clorgyline hydrochloride], the “APOC3 transcript change (Z-score)” value was -1.65.
With `Cc1cn([C@H]2C[C@H](N=[N+]=[N-])[C@@H](CO)O2)c(=O)[nH]c1=O` [zidovudine [azt]] the “APOC3 transcript change (Z-score)” value was -0.973.
`Clc1ccc2c(c1)CCc1cccnc1C2=C1CCNCC1` [desloratidine] was tested, and the “APOC3 transcript change (Z-score)” value was 0.337.
For `C#CCN(C)Cc1ccccc1` [Pargyline hydrochloride], the “APOC3 transcript change (Z-score)” value was -0.0763.
With `CCOC(=O)c1ncn2c1CN(C)C(=O)c1cc(F)ccc1-2` [flumazenil] the “APOC3 transcript change (Z-score)” value was 0.0221.
For `O=C(O)/C=C/C(=O)O` [fumaric acid], the “APOC3 transcript change (Z-score)” value was -0.261.
With `CO[C@@]1(NC(=O)CSCC#N)C(=O)N2C(C(=O)O)=C(CSc3nnnn3C)CSC21` (some centres undefined) [cefmetazole sodium] the “APOC3 transcript change (Z-score)” value was 0.537.
For `NC(=O)NC1NC(=O)NC1=O` (centres undefined) [allantoin], the “APOC3 transcript change (Z-score)” value was 0.148.
For `CCCCCOC(=O)Nc1nc(=O)n([C@@H]2O[C@H](C)[C@@H](O)[C@H]2O)cc1F` [capecitabine], the “APOC3 transcript change (Z-score)” value was -0.725.
`O=C(O)c1cc(N=Nc2ccc(O)c(C(=O)O)c2)ccc1O` [olsalazine sodium] was tested, and the “APOC3 transcript change (Z-score)” value was 0.663.
`CC12CCC3c4ccc(O)cc4CCC3C1C[C@H](O)[C@@H]2O` (some centres undefined) [epiestriol] was tested, and the “APOC3 transcript change (Z-score)” value was -1.12.
For `O=C1[C@H](CC[C@H](O)c2ccc(F)cc2)[C@@H](c2ccc(O)cc2)N1c1ccc(F)cc1` [ezetimibe], the “APOC3 transcript change (Z-score)” value was 0.495.
`CC(O)(P(=O)(O)O)P(=O)(O)O` [etidronate disodium] was tested, and the “APOC3 transcript change (Z-score)” value was 0.516.
With `C/C=C\C1=C(C(=O)O)N2C(=O)C(NC(=O)C(N)c3ccc(O)cc3)C2SC1` (centres undefined) [cefprozil] the “APOC3 transcript change (Z-score)” value was 0.376.
For `O=C1/C(=C/c2cccs2)CCC/C1=C\c1cccs1` [tenylidone], the “APOC3 transcript change (Z-score)” value was 0.477.
For `CN1C(=O)CC(C)(c2ccccc2)C1=O` (centres undefined) [methsuximide], the “APOC3 transcript change (Z-score)” value was 0.634.
`CC(C)(O/N=C(\C(=O)N[C@@H]1C(=O)N2C(C(=O)O)=C(C[n+]3ccccc3)CS[C@H]12)c1csc(N)n1)C(=O)O` [ceftazidime] was tested, and the “APOC3 transcript change (Z-score)” value was -0.0611.
For `Cc1nc2ccccc2n1Cc1ccc(Cl)cc1` [chlormidazole], the “APOC3 transcript change (Z-score)” value was 0.0713.
For `Cc1cc(O)nc(S)n1` [methylthiouracil], the “APOC3 transcript change (Z-score)” value was -0.433.
For `CC(C)NCC(O)c1cc(O)cc(O)c1` (centres undefined) [metaproterenol], the “APOC3 transcript change (Z-score)” value was 0.152.
With `CCOC(=O)[C@H](CCc1ccccc1)N[C@@H](C)C(=O)N1[C@H](C(=O)O)C[C@@H]2CCC[C@@H]21` [ramipril] the “APOC3 transcript change (Z-score)” value was -0.421.
In the case of `CNC(=O)c1c(I)c(NC(C)=O)c(I)c(C(=O)O)c1I` [iothalamic acid], the “APOC3 transcript change (Z-score)” value is reported as 0.568.
`CC(=O)Oc1cc2c(s1)CCN([C@H](C(=O)C1CC1)c1ccccc1F)C2` [prasugrel] was tested, and the “APOC3 transcript change (Z-score)” value was -1.92.
With `O=C1CCC(N2C(=O)c3ccccc3C2=O)C(=O)N1` (centres undefined) [thalidomide] the “APOC3 transcript change (Z-score)” value was -0.00346.
With `CC1(C)S[C@@H]2[C@H](NC(=O)Cc3ccccc3)C(=O)N2[C@H]1C(=O)O` [penicillin g potassium] the “APOC3 transcript change (Z-score)” value was 0.769.
For `CCOc1ccc(NC(=O)CC(C)O)cc1` (centres undefined) [bucetin], the “APOC3 transcript change (Z-score)” value was 0.563.
With `CCN(CC)CCNC(=O)COc1ccc(OC)cc1` [mefexamide] the “APOC3 transcript change (Z-score)” value was -0.641.
For `CC(N)C(=O)OC(C)(C)Cc1ccc(Cl)cc1` (centres undefined) [Alaproclate hydrochloride], the “APOC3 transcript change (Z-score)” value was -0.361.
In the case of `CC(=O)OCC1=C(C(=O)O)N2C(=O)[C@@H](NC(=O)Cc3cccs3)[C@H]2SC1` [cephalothin sodium], the “APOC3 transcript change (Z-score)” value is reported as 1.06.
`CC(=O)c1ccc2c(c1)Sc1ccccc1N2CCCN1CCN(CCO)CC1` [acetophenazine maleate] was tested, and the “APOC3 transcript change (Z-score)” value was 0.504.
In the case of `Cc1cccc(Nc2ccccc2C(=O)O)c1C` [mefenamic acid], the “APOC3 transcript change (Z-score)” value is reported as -0.178.
For `CC(C)(C)C(=O)C(Oc1ccc(Cl)cc1)n1ccnc1` (centres undefined) [climbazole], the “APOC3 transcript change (Z-score)” value was -0.542.
In the case of `CCCc1cc(C(N)=S)ccn1` [protionamide], the “APOC3 transcript change (Z-score)” value is reported as 0.0556.
In the case of `NC(CO)C(=O)NNCc1ccc(O)c(O)c1O` (centres undefined) [Benserazide hydrochloride], the “APOC3 transcript change (Z-score)” value is reported as -0.0953.
In the case of `COc1ccc(CC2c3cc(OC)c(OC)cc3CC[N+]2(C)CCC(=O)OCCCCCOC(=O)CC[N+]2(C)CCc3cc(OC)c(OC)cc3C2Cc2ccc(OC)c(OC)c2)cc1OC` (centres undefined) [atracurium besylate], the “APOC3 transcript change (Z-score)” value is reported as 0.686.
`Nc1nc(O)c2ncn(CCC(CO)CO)c2n1` [penciclovir] was tested, and the “APOC3 transcript change (Z-score)” value was 0.778.
In the case of `CC1=C(/C=C/C(C)=C/C=C/C(C)=C/C(=O)O)C(C)(C)CCC1` [tretinon], the “APOC3 transcript change (Z-score)” value is reported as 2.98.
In the case of `O=C(O)CCC(=O)c1ccc(-c2ccccc2)cc1` [fenbufen], the “APOC3 transcript change (Z-score)” value is reported as -1.16.
For `CCc1c2c(nc3ccc(OC(=O)N4CCC(N5CCCCC5)CC4)cc13)-c1cc3c(c(=O)n1C2)COC(=O)[C@]3(O)CC` [irinotecan hydrochloride], the “APOC3 transcript change (Z-score)” value was 0.361.
With `CN[C@H]1CC[C@@H](c2ccc(Cl)c(Cl)c2)c2ccccc21` [sertraline hydrochloride] the “APOC3 transcript change (Z-score)” value was 1.71.
`CO/C(O)=C1\C(C)=NC(C)=C(C(=O)OCC(C)C)C1c1ccccc1[N+](=O)[O-]` (centres undefined) [nisoldipine] was tested, and the “APOC3 transcript change (Z-score)” value was 2.13.
In the case of `C[C@H]1O[C@H](O[C@H]2[C@H](O)[C@@H](O)[C@@H](O[C@H]3[C@H](O)[C@@H](O)C(O)O[C@@H]3CO)O[C@@H]2CO)[C@H](O)[C@@H](O)[C@@H]1N[C@H]1C=C(CO)[C@@H](O)[C@H](O)[C@H]1O` (some centres undefined) [acarbose], the “APOC3 transcript change (Z-score)” value is reported as 0.631.
In the case of `C#C[C@]1(OC(C)=O)CCC2C3CCC4=C/C(=N/O)CCC4C3CC[C@@]21CC` (some centres undefined) [norgestimate], the “APOC3 transcript change (Z-score)” value is reported as 0.153.
For `O[C@H]1[C@H](O)[C@@H](O)[C@H](O)[C@@H](O)[C@H]1O` [inositol], the “APOC3 transcript change (Z-score)” value was 0.589.
In the case of `NCC[C@H](O)C(=O)N[C@@H]1C[C@H](N)[C@@H](O[C@H]2O[C@H](CN)[C@@H](O)[C@H](O)[C@H]2O)[C@H](O)[C@H]1O[C@H]1O[C@H](CO)[C@@H](O)[C@H](N)[C@H]1O` [amikacin sulfate], the “APOC3 transcript change (Z-score)” value is reported as -0.702.
For `O=C1c2c(O)cccc2Cc2cccc(O)c21` [anthralin], the “APOC3 transcript change (Z-score)” value was 0.876.
In the case of `CCn1cc(C(=O)O)c(=O)c2cc(F)c(N3CCNCC3)nc21` [enoxacin], the “APOC3 transcript change (Z-score)” value is reported as -3.11.
